Test results taken from patent publication US20220220206A1, “TREATING CHRONIC LIVER DISEASE” (Mayo Foundation for Medical Education and Research, priority 2019, published 2022).

Tested on: FFC diet-fed C57BL/6J mice (diet-induced NASH)
Assay: FFC diet-induced NASH mouse model, VCAM-1 blockade (antibody or AGI-1067)
Assay type: in vivo
Details: AGI-1067 25 mg/kg i.p. daily for 15 days, vs vehicle
From the text: C57BL/6J male mice were purchased from Jackson Laboratory (Bar Harbor, Me.). Mice were housed and bred in a temperature-controlled 12:12-hour light-dark cycle facility with free access to diet. The mice were fed either a chow diet (5053 PicoLab Rodent Diet 20, LabDiet, St Louis, Mo.) or a diet rich in fat, fructose, and cholesterol (FFC) at 8-weeks old for 24 weeks. FFC diet consists of 40% energy as fat (12% saturated fatty acid, 0.2% cholesterol) (AIN-76A Western Diet, TestDiet, St Louis, Mo.), with fructose (23.1 g/L) and glucose (18.9 g/L) in the drinking water. The FFC diet induces steatohepatitis with pronounced hepatocellular ballooning, lipoapoptosis, and progressive fibrosis with a high fidelity to the human NASH histology and metabolic profile. At 20 weeks on the diet, the mice were randomized to receive either anti-VCAM-1 neutralizing antibody (M/K-2.7), (Genetex, GTX14360) or IgG isotype antibody (BE0088, InVivoMAb). […] Total caloric intake at the 3rd week of VCAM-1 antibody treatment and the first week of AGI-1067 treatment was calculated based on the weight of food and drinking water consumption. At the third week of anti-VCAM-1 neutralizing antibody treatment, metabolic parameters, including oxygen consumption, carbon dioxide production, and locomotor activity, were measured using a Comprehensive Lab Animal Monitoring System (CLAMS, Columbus Instruments, OH). […] Blood glucose levels and plasma insulin levels were measured using Assure 4 (Arkray, Edina, Minn.) and Ultra-Sensitive Mouse Insulin enzyme-linked immunosorbent assay (ELISA) kit (Crystal Chem Inc., Downers Grove, Ill.), respectively. Homeostasis model assessment of insulin resistance (HOMA-IR) was calculated by using the following formula: HOMA-IR=26×fasting insulin level (ng/mL)×fasting glucose level (mg/dL)/405. […]
Liver triglyceride levels were measured in mouse liver homogenates. […] Photometric absorbance was read at 570 nm using a Synergy H1 microplate reader (BioTek). Serum alanine aminotransferase (ALT) levels were measured by VetScan2 (Abaxis Veterinary Diagnostics, Union City, Calif.). […]

CC(C)(Sc1cc(C(C)(C)C)c(O)c(C(C)(C)C)c1)Sc1cc(C(C)(C)C)c(OC(=O)CCC(=O)O)c(C(C)(C)C)c1 [AGI-1067, succinobucol]
did not alter: caloric intake | liver to body weight ratio | weight gain
